In PMC5042352 (Analytical methods : advancing methods and applications, 2016):

Type: in vivo, human (Chinese male healthy subjects)
Conditions: after i.m. injection of the compound medicine BSP and BDP

C[C@H]1C[C@H]2[C@@H]3CCC4=CC(=O)C=C[C@]4(C)[C@@]3(F)[C@@H](O)C[C@]2(C)[C@@]1(O)C(=O)COP(=O)([O-])[O-].[Na+].[Na+] [BSP, betamethasone sodium phosphate]
plasma concentration in healthy subjects' plasma samples (detectability): could not be detected
